Data from patent US20190218308A1.
These are yes or no findings as the source states them, for the method shown. Some results given as binding are weak or reduced against the parent protein; the word gives no strength.

Experiments:
CD39 mutant 12 (human) = biological target: T1, CD39 mutant 12 (human) (UniProt P49961); assay: flow cytometry, Hek-293T cells expressing mutant 12
T1 sequence: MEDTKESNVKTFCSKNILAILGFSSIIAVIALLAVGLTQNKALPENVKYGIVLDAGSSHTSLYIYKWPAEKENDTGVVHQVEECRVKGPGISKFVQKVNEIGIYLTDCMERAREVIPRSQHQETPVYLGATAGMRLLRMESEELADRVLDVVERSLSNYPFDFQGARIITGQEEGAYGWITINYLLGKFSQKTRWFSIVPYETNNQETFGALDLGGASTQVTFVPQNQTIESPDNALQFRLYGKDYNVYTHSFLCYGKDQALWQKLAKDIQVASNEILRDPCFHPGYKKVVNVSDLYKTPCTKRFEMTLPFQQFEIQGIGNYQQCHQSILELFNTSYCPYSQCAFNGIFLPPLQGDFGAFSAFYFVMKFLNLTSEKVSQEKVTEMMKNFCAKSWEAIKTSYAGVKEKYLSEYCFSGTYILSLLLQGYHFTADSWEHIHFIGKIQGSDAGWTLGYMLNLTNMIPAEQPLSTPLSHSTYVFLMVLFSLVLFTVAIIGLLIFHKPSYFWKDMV

CD39 mutant 17 (human) = biological target: T2, CD39 mutant 17 (human) (UniProt P49961); assay: flow cytometry, Hek-293T cells expressing mutant 17
T2 sequence: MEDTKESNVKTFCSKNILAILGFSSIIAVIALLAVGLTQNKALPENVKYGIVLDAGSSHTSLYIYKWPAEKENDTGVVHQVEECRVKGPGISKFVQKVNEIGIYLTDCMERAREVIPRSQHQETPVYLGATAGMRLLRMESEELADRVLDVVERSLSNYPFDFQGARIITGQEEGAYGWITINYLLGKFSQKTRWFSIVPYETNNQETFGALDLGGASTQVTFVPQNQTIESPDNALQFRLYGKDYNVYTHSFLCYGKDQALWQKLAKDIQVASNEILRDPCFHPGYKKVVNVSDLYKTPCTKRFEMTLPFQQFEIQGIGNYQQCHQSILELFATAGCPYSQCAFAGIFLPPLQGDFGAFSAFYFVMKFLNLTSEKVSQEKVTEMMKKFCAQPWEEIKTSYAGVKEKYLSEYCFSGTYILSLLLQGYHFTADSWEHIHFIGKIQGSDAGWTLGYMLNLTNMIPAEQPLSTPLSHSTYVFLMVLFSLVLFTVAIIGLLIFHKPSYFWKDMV

CD39 mutant 10A (human) = biological target: T3, CD39 mutant 10A (human) (UniProt P49961); assay: flow cytometry, Hek-293T cells expressing mutant 10A
T3 sequence: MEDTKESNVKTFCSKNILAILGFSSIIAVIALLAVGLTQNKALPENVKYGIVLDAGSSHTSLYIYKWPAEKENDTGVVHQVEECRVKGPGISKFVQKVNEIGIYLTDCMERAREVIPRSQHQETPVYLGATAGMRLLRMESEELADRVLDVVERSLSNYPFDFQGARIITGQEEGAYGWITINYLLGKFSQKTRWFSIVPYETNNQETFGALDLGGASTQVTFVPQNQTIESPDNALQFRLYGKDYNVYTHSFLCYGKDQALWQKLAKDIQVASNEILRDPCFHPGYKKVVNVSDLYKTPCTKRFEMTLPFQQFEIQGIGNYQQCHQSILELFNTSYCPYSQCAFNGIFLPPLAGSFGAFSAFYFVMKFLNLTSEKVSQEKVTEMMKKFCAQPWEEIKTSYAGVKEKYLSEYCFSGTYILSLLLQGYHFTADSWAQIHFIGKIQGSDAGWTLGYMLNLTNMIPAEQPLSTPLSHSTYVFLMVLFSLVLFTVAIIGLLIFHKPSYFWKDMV

CD39 mutant 4 (human) = biological target: T4, CD39 mutant 4 (human) (UniProt P49961); assay: flow cytometry, Hek-293T cells expressing mutant 4
T4 sequence: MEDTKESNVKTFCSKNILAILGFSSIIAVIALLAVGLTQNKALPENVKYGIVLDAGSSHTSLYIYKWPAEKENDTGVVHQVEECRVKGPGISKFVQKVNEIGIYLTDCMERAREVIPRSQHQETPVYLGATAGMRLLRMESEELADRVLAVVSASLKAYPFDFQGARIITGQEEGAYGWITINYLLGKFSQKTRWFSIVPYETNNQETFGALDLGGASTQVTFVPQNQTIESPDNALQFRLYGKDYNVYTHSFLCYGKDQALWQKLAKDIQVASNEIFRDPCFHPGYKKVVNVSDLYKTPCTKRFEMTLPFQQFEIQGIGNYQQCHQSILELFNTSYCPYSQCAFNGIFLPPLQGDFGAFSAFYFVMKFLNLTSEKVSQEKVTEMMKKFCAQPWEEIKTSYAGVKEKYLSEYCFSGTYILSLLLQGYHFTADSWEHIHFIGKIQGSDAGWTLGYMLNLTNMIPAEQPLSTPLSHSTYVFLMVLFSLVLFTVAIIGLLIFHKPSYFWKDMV

CD39 mutant 8 (human) = biological target: T5, CD39 mutant 8 (human) (UniProt P49961); assay: flow cytometry, Hek-293T cells expressing mutant 8
T5 sequence: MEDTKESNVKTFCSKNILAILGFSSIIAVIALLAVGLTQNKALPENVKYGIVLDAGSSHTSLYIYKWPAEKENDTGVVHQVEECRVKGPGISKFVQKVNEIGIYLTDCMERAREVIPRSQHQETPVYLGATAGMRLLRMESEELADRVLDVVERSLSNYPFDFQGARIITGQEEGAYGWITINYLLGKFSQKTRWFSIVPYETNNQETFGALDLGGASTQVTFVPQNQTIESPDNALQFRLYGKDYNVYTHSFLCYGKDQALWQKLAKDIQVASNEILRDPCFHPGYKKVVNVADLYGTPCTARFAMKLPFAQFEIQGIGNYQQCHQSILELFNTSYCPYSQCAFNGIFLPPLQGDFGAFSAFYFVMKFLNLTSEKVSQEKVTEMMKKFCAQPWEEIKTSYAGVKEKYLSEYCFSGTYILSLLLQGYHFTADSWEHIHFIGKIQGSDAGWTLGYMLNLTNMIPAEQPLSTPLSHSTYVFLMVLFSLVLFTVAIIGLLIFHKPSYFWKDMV

Measured: binding

B1: antibody I-399 (antibody, V domains shown)
VH: PVQLQQPGAEVVMPGASVKLSCKASGYTFTSFWMNWMRQRPGQGLEWIGEIDPSDFYTNSNQRFKGKATLTVDKSSSTAYMQLSSLTSEDSAVYFCARGDFGWYFDVWGTGTSVTVSS
VL: EIVLTQSPTTMTSSPGEKITFTCSASSSINSNYLHWYQQKPGFSPKLLIYRTSNLASGVPTRFSGSGSGTSYSLTIGTMEAEDVATYYCQQGSSLPRTFGGGTKLEIK
binds: CD39 mutant 12 (human) | CD39 mutant 17 (human) | CD39 mutant 10A (human) | CD39 mutant 4 (human) | CD39 mutant 8 (human)
